Drawing on publication PMC3877338, this text covers binding for two molecules.

These are yes or no findings as the source states them, for the method shown. In cells and extracts the contact can be indirect. Some entries that bind do so weakly or less than the wild type. Tags and fused reporters may be left off the sequences shown.

Test [1] addresses T1, RXR-Luc (mouse RXRα fused at its C-terminus to Renilla luciferase Rluc8) (mouse) (UniProt P28700).
T1 sequence: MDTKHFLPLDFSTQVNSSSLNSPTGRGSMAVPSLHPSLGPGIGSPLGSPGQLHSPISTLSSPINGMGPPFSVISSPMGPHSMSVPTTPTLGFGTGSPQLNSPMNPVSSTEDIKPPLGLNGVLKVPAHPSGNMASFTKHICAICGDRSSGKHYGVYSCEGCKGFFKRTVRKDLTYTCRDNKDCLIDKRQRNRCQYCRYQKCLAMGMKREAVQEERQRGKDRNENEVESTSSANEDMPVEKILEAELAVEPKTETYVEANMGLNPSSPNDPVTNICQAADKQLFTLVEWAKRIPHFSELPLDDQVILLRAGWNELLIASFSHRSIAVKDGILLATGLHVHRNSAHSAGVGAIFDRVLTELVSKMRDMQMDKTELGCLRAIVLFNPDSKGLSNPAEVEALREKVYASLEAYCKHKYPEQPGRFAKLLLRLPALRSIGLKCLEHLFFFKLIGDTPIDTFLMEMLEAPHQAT
Briefly: FRET or BRET; in vitro BRET shift in Gel shift Buffer (10 mM Tris pH 7.5, 50 mM KCl, 1 mM DTT, 0, 2 or 5 mM MgCl2), lysates diluted in GSB, with dsDNA RE. A general note: Mobility shift assays separate free from complexed probe on a gel.

For test [2], the target named is T1, RXR-Luc (mouse RXRα fused at its C-terminus to Renilla luciferase Rluc8) (mouse). The test is described as follows: FRET or BRET; in vitro BRET shift: cleared HEK293T lysates in PLB, 80 ku RXR-Luc donor mixed with acceptor lysate, with 100 nM consensus dsDNA RE (DR1 for RXR/PPARG2 and RXR/RXR, DR4 for RXR/THR); with or without polydIdC.
Test [3] has the same target. Briefly: FRET or BRET; BRET titration in living HEK293T cells: fixed RXR-Luc donor plasmid, increasing acceptor plasmid; cells in PBS with 0.1% glucose, coelenterazine H 5 uM; control DMSO or ligands (9cisRA + TROG or T3; 5-10 min or overnight); apparent Kd = EYFP/Luc ratio at BRETmax/2.

B1: THR-EYFP (mouse THRα fused at its C-terminus to EYFP) (receptor, UniProt P63058-2 1-410)
chain: MEQKPSKVECGSDPEENSARSPDGKRKRKNGQCPLKSSMSGYIPSYLDKDEQCVVCGDKATGYHYRCITCEGCKGFFRRTIQKNLHPTYSCKYDSCCVIDKITRNQCQLCRFKKCIAVGMAMDLVLDDSKRVAKRKLIEQNRERRRKEEMIRSLQQRPEPTPEEWDLIHVATEAHRSTNAQGSHWKQRRKFLPDDIGQSPIVSMPDGDKVDLEAFSEFTKIITPAITRVVDFAKKLPMFSELPCEDQIILLKGCCMEIMSLRAAVRYDPESDTLTLSGEMAVKREQLKNGGLGVVSDAIFELGKSLSAFNLDDTEVALLQAVLLMSTDRSGLLCVDKIEKSQEAYLLAFEHYVNHRKHNIPHFWPKLLMKVTDLRMIGACHASRFLHMKVECPTELFPPLFLEVFEDQEV
For the molecule B1, the binding entry in test [1], in test [2] and in test [3] was “binds” in each case.

B2: RXR-Luc (mouse RXRα fused at its C-terminus to Renilla luciferase Rluc8) (receptor, UniProt P28700 1-467)
chain: T1 sequence
In the case of B2, the binding result in test [1] and in test [2] was “binds” throughout.
